Results are given in words; binding and its absence hold for the method and conditions named. Binding seen in cells or lysates may run through a third protein. Here binding means that the protein was enriched with, or labelled near, the bait; the list need not be complete.
Target: T1, Keratin 80 (human (endogenous in A549)) (UniProt Q6KB66)
T1 sequence: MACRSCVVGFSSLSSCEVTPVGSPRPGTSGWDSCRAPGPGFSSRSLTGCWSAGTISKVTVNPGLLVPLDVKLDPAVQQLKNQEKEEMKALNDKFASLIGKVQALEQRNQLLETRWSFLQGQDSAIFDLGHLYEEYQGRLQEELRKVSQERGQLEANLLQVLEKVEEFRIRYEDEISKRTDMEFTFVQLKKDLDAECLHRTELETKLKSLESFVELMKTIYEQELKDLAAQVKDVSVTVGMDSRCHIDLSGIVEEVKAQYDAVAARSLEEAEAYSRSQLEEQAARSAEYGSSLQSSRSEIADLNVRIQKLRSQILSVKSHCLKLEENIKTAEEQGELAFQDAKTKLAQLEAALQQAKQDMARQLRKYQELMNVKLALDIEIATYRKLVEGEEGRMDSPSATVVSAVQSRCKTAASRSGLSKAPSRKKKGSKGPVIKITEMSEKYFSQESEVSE
Assay: affinity purification with mass spectrometry; IP-MS of KRT80 'in LUAD'; cell line and antibody not stated; 206 interacting proteins listed

Substance: Valosin-containing protein (from UniProt P55072 1-806)
- binding: binds

— publication PMC10937267
